Library screening results

Each number is a percent effect as filed. How 0% and 100% were set is not recorded. Most values in the screen are low, and negative values occur. The compounds are a random part of those screened. Two or more numbers in one place are separate tests of the same structure; such repeats can differ widely.

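Viability assay of Plasmodium falciparum sporozoites; the read-out is not stated. The concentration is filed as 10 mM, unlikely as a test dose, so the dose is not known. Higher reads as lower viability (inferred: compounds with an IC50 in retests scored well above the rest). Strong results were mostly tested again. Size under these conditions: about 34,000 compounds, about 280 of them at 50% or above in at least one test.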

CCN(CC)c1ccc(CNC(=O)c2ccc(=O)[nH]n2)cn1 gave -8.686%. With COc1ccccc1C(=O)N(C)C1CCN(c2ccccn2)CC1 the screen gave -1.395%. COCCOc1cccc(CNCc2ccc(-n3cncn3)nc2)c1 read -3.201%. CC(C)(CNC(=O)NCCc1ccn(-c2ccccc2)n1)C(N)=O read -1.958%. [H][C@@]12CN(Cc3cccnc3)C[C@]1([H])CN(C(=O)c1cccn1C)C2 gave -4.466%. For COc1c(C2CCCN2C(=O)c2ccc(Cl)o2)c(C)nn1C (stereo not given) the result was -6.313%. For N[C@H]1CC[C@@H](Nc2nccc(CCC(F)(F)F)n2)CC1 the result was 1.776%.

Result for CN1CCOC(C(=O)Nc2ccc3c(c2)nc(C(C)(C)C)n3C)C1 (stereo not given) was 104.1% and 105.2%. For O=C(CN1CCN(c2nccs2)CC1)Nc1cccnc1 the result was 6.06%. For O=C(CCNC(=O)C1CCCC1)NCc1cccnc1-n1cncn1 the result was 11.33%. Result for COc1ccc(Cl)cc1CC(=O)N1CCN(CC(C)O)CC1 (stereo not given) was 5.267%. With Cc1nc(C(Cc2ccsc2)NC(=O)CCN2CCOCC2)sc1C (stereo not given) the screen gave 6.84%. For CCNC(=O)C1(Cc2cc(-c3ccccc3)no2)CCCN(C(C)C)C1 (stereo not given) the result was 8.655%. O=C(O)C(F)(F)F.O=C1CC2(CCN(Cc3ccccn3)C2)CN1c1cncnc1 (stereo not given) read 0.6857%.

O=C(NCC1CC1)C1CCC2(CCN(C(=O)c3ccoc3)CC2)O1 (stereo not given) read 2.888%. Cc1noc(C)c1CN(C)C(=O)NC1CCN(C2CC2)CC1 read -8.696%. CC(=O)N[C@@H]1CN(C(=O)c2cccc(C(F)(F)F)c2)C[C@H]1O gave 3.016%. For CN1C(=O)CC(c2ccccc2)C12CCN(CC1CC1)CC2.O=C(O)C(F)(F)F (stereo not given) the result was 9.895%. CN(Cc1ccsc1)C(=O)Nc1ccc(S(=O)(=O)N(C)C)cc1 gave -0.9046%. COc1ccc(OCCNCc2c(C)nn(C)c2N(C)C)cc1.Cl gave 2.873%. COC(=O)c1cc(C(=O)N2CCCCC2C)n(-c2ccccc2)n1 (stereo not given) gave 3.674%.

CC(C)CCN1C2(CCN(C(=O)N(C)C)C2)c2ccccc2S1(=O)=O (stereo not given) read 4.216%. COCCn1cc(C(=O)N2CCCC(n3cncn3)C2)ccc1=O (stereo not given) gave -1.561%. C=C(C)CN(c1cn[nH]c1)S(=O)(=O)c1cccc(C#N)c1 read -28.87%. Result for Cc1nc(-c2ccncc2)ncc1C(C)NC(=O)CN1CCCC1=O (stereo not given) was -5.692%. For Cc1ccc(NC(=O)Cn2cc(I)cn2)cc1C the result was -7.72% and -11.7% and -18.62%. CCCc1noc(CCC(=O)N2CCCC2c2noc(C3CC3)n2)n1 (stereo not given) gave -8.635%. Result for Cc1cc(C)n(CC2CCCN2C(=O)CCc2nccs2)n1 (stereo not given) was -1.821%.

With O=C(NCCOc1ccc(Cl)cn1)NCCc1ccccn1 the screen gave -5.965%. FC1(F)CCN(Cc2ccncc2)CC12CCN(c1cccnc1)C2.O=C(O)C(F)(F)F.O=C(O)C(F)(F)F.O=C(O)C(F)(F)F (stereo not given) read -2.998%. For Cc1nc(CN2CCCC(NCCOc3ccccc3)C2)no1 (stereo not given) the result was -6.003%. Result for Cc1ccc(F)cc1C(=O)N1C[C@@H](CN2CCOCC2)[C@@H](CO)C1 was -1.143%. With c1ccc(-c2nnn3c2COC(CNCC2CC2)C3)cc1 (stereo not given) the screen gave -7.899%.

Some entries from above, unchanged:

{"compound": "CCN(CC)c1ccc(CNC(=O)c2ccc(=O)[nH]n2)cn1", "percent effect": -8.686}
{"compound": "N[C@H]1CC[C@@H](Nc2nccc(CCC(F)(F)F)n2)CC1", "percent effect": 1.776}

The values are deposited in ChEMBL (CHEMBL3988442, “University of Dundee, Small-Polar-MMV Screening Library” (2021)).